{"sequences": {"note": "By UniProt entry, the sequences of proteins in these tests, tags left out. Where a name states a change or a piece, a line headed by the entry shows the natural chain unless it says otherwise.", "UniProt P15116": "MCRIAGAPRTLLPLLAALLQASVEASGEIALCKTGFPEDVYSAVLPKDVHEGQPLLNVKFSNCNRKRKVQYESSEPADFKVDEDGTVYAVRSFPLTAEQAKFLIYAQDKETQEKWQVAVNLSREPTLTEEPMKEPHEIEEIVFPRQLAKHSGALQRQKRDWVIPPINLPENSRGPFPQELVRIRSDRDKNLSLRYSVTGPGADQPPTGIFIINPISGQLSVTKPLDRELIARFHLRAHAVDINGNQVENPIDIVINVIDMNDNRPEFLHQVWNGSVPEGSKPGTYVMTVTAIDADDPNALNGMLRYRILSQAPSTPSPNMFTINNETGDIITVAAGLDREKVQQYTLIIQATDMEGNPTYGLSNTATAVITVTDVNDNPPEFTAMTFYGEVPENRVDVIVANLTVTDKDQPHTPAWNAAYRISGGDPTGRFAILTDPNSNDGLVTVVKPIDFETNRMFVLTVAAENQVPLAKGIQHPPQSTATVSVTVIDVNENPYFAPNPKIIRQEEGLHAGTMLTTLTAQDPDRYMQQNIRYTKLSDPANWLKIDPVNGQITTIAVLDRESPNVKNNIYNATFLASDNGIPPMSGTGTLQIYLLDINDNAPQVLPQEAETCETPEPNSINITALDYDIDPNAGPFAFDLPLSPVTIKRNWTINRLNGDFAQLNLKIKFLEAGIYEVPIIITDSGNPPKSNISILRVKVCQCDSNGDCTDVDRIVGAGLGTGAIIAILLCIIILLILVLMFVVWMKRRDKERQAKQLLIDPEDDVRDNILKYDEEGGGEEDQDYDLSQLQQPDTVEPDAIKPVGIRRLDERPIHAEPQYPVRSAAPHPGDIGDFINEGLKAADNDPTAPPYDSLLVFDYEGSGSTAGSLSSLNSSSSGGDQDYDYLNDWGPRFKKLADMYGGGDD"}, "source": "paper PMC4539528", "biological_target": "RFP-Ncad (full-length N-cadherin) (UniProt P15116)", "test": "co-IP; HA-Myo10^FERM co-expressed with RFP-Ncad in HEK293T cells; immunoprecipitated by anti-RFP antibody or mIgG; immunoblot", "note": "Results are given in words; binding and its absence hold for the method and conditions named. Binding seen in cells or lysates may run through a third protein. Binding calls can cover weak binding; strength is not graded here. Sequences can lack the tags named with a protein.", "data": [{"binder": "HA-Myo10^FERM (domain or fragment, UniProt F8VQB6 1704-2048) MTSTVYCHGGGSCKITINSHTTAGEVVEKLIRGLAMEDSRNMFALFEYNGQVDKAIESRTIVADVLAKFEKLAATSEAGDAPWKFYFKLYCFLDTDSMPKDSVEFAFMFEQAHEAVIHGHHPAPEESLQVLAALRLQYLQGDYTPHTSIPPLEEVYSVQRLRARISQSTKTFTPYERLEKRRTSFLEGTLRRSFRTGSVVRQKAEEEQMLDMWIKEEVCSARTSIIDKWKKLQGMNQEQAMAKYMALIKEWPGYGSTLFDVECKEGGFPQELWLGVSADAVSVYKRGEGKPLEVFQYEHILSFGAPLANTYKIVVDERELLFETSEVVDVAKLMKAYISMIVKKR", "values": [{"measurement": "binding", "result": "binds"}]}]}
